This note sets out measurements from paper PMC4124494.

Amino acid sequences for entries named in this document (tags omitted).
UniProt Q13200: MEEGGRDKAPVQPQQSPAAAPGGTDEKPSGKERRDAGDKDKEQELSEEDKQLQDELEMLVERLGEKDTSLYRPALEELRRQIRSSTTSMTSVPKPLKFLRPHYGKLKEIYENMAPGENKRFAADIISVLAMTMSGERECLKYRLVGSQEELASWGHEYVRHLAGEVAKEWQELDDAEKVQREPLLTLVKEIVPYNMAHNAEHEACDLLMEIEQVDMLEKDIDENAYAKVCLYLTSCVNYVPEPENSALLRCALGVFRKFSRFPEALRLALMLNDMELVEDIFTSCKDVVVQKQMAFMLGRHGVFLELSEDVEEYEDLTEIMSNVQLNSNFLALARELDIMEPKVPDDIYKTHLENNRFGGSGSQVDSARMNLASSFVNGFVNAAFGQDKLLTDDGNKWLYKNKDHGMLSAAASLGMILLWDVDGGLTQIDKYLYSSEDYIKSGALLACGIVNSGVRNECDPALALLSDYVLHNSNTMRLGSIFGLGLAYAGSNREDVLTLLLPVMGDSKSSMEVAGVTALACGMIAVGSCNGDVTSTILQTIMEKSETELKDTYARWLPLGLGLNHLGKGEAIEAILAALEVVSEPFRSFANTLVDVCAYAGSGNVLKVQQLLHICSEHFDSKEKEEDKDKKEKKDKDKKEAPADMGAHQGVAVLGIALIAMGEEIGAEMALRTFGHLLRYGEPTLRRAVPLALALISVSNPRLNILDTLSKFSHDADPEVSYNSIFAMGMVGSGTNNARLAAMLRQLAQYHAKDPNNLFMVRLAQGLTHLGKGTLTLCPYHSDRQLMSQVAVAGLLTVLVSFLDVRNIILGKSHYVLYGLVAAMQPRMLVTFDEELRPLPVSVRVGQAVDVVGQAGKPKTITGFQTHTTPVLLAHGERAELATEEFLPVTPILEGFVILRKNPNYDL

For the assay, the target named is T1, endogenous ASPL (human (endogenous in HeLa or MelJuSo)) (UniProt Q9BZE9).
T1 sequence: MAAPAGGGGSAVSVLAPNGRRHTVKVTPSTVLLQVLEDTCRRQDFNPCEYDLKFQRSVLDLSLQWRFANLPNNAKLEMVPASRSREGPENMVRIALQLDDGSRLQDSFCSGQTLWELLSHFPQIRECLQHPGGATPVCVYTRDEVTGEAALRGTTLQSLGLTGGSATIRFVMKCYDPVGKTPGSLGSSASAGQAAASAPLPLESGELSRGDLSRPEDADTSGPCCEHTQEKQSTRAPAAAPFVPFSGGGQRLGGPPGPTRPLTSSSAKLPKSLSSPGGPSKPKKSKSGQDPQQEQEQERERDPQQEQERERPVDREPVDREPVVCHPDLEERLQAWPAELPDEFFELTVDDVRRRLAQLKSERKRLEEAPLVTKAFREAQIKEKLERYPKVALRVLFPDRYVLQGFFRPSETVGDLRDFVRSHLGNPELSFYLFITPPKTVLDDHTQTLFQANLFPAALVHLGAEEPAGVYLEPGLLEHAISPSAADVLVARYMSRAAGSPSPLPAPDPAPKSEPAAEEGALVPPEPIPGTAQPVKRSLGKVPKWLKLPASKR
Briefly: co-IP; endogenous proteins; antibody to ASPL and Protein A Sepharose, beads only as control; MelJuSo cell lysates, buffer not told for these blots; blots for Rpn1 and the 20S α-subunits.

No constants are given. Whether binding was seen depends on the method and setting. In cells and extracts the contact can be indirect.

Take “Rpn1 subunit of the 19S proteasome complex, endogenous (from UniProt Q13200 1-908)”: the binding result is “no binding”.
